Eight molecules from article doi:10.1101/2023.07.31.551310 can be followed below.

Chains of the proteins cited; added tags and fusions are not shown. Lines headed by an entry give the natural chain unless they say otherwise; changes in a name come on top.
UniProt F4IXW2: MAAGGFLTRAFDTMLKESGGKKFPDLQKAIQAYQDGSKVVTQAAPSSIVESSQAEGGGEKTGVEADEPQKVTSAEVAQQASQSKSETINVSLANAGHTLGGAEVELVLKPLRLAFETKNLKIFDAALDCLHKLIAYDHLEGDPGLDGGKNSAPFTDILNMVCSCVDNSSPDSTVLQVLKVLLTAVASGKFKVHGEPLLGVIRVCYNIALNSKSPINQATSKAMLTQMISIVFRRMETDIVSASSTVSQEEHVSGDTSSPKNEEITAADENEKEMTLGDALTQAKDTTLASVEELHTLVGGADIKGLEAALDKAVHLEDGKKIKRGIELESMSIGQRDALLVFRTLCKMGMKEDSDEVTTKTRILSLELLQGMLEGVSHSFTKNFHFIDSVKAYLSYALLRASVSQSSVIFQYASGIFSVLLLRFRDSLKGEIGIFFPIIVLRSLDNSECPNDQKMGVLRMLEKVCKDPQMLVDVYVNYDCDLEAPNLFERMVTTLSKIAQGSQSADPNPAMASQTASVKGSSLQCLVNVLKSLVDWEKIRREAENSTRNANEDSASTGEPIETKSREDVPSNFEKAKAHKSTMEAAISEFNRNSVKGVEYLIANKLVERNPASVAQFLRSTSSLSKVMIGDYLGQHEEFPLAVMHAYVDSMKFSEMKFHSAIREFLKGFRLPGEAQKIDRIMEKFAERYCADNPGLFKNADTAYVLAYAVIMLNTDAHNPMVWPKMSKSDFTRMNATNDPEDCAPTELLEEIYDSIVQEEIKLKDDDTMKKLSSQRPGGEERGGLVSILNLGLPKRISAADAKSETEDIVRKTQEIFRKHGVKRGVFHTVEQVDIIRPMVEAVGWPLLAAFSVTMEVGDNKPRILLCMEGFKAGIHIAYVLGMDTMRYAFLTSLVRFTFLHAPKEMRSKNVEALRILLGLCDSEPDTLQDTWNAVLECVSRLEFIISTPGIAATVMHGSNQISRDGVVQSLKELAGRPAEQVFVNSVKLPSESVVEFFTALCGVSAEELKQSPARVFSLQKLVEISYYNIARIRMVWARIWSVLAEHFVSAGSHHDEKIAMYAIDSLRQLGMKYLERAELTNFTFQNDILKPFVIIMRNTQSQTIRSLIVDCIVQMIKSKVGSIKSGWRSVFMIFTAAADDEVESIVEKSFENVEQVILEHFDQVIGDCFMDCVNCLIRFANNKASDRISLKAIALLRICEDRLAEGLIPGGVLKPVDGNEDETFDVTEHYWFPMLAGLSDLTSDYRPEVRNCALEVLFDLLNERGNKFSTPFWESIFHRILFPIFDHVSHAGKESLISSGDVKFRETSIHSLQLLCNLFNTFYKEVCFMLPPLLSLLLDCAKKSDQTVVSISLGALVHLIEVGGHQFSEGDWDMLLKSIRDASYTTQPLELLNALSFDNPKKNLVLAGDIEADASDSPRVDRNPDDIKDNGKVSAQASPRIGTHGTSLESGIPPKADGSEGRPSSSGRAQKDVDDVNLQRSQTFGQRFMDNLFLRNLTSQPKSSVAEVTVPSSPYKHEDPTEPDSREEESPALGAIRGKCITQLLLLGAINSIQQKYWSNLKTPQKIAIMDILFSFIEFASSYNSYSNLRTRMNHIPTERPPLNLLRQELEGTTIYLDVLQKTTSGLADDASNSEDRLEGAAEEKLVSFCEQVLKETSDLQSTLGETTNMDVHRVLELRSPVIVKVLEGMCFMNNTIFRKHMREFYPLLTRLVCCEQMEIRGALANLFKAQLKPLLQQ
UniProt Q9LZX8: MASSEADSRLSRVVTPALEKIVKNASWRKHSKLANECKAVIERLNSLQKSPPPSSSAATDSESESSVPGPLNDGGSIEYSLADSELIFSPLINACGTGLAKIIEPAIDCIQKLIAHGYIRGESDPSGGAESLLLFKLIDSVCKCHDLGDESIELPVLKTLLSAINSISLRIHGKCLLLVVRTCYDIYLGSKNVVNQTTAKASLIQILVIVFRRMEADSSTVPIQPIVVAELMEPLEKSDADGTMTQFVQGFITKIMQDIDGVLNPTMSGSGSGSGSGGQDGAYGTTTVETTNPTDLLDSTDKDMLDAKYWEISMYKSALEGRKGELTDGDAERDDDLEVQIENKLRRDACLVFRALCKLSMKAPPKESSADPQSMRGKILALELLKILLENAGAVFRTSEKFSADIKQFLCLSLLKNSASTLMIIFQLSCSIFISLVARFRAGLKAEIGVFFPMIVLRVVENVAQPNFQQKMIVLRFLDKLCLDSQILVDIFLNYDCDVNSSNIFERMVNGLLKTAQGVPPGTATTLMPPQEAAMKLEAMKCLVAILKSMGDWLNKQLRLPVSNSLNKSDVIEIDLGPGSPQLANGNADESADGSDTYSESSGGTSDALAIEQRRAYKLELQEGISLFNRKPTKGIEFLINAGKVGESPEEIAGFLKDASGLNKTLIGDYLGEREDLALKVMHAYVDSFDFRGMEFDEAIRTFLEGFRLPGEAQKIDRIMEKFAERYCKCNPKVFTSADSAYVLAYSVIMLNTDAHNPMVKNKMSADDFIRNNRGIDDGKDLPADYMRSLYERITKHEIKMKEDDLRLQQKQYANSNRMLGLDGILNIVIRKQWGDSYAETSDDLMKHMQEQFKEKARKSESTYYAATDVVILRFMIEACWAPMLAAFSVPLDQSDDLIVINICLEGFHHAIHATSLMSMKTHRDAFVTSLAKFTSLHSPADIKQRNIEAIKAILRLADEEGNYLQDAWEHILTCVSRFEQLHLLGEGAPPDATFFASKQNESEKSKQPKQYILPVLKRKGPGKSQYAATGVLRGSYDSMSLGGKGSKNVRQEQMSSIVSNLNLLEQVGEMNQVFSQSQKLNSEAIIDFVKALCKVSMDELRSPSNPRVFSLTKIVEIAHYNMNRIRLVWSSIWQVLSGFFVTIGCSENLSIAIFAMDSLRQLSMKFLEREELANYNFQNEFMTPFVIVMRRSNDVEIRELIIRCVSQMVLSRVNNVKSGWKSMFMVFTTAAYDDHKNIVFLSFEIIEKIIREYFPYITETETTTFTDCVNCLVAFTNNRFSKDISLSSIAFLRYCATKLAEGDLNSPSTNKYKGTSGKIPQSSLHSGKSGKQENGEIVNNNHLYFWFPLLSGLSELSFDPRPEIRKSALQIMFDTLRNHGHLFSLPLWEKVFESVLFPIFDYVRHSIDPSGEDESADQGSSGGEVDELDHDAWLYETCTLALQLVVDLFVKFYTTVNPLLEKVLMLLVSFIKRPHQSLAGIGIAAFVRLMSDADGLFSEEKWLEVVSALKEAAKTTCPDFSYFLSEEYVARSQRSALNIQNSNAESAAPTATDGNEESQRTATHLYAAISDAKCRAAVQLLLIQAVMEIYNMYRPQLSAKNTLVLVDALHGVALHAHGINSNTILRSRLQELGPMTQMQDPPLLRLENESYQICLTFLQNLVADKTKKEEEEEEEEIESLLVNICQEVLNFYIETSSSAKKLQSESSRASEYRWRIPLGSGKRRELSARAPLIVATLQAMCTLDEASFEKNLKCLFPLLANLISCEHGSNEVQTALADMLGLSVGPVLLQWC
UniProt P36397: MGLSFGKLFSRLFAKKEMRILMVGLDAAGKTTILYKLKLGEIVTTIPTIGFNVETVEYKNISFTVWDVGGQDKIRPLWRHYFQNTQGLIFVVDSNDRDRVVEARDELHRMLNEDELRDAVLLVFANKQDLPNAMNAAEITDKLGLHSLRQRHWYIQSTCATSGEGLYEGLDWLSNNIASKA
UniProt Q9LPC5: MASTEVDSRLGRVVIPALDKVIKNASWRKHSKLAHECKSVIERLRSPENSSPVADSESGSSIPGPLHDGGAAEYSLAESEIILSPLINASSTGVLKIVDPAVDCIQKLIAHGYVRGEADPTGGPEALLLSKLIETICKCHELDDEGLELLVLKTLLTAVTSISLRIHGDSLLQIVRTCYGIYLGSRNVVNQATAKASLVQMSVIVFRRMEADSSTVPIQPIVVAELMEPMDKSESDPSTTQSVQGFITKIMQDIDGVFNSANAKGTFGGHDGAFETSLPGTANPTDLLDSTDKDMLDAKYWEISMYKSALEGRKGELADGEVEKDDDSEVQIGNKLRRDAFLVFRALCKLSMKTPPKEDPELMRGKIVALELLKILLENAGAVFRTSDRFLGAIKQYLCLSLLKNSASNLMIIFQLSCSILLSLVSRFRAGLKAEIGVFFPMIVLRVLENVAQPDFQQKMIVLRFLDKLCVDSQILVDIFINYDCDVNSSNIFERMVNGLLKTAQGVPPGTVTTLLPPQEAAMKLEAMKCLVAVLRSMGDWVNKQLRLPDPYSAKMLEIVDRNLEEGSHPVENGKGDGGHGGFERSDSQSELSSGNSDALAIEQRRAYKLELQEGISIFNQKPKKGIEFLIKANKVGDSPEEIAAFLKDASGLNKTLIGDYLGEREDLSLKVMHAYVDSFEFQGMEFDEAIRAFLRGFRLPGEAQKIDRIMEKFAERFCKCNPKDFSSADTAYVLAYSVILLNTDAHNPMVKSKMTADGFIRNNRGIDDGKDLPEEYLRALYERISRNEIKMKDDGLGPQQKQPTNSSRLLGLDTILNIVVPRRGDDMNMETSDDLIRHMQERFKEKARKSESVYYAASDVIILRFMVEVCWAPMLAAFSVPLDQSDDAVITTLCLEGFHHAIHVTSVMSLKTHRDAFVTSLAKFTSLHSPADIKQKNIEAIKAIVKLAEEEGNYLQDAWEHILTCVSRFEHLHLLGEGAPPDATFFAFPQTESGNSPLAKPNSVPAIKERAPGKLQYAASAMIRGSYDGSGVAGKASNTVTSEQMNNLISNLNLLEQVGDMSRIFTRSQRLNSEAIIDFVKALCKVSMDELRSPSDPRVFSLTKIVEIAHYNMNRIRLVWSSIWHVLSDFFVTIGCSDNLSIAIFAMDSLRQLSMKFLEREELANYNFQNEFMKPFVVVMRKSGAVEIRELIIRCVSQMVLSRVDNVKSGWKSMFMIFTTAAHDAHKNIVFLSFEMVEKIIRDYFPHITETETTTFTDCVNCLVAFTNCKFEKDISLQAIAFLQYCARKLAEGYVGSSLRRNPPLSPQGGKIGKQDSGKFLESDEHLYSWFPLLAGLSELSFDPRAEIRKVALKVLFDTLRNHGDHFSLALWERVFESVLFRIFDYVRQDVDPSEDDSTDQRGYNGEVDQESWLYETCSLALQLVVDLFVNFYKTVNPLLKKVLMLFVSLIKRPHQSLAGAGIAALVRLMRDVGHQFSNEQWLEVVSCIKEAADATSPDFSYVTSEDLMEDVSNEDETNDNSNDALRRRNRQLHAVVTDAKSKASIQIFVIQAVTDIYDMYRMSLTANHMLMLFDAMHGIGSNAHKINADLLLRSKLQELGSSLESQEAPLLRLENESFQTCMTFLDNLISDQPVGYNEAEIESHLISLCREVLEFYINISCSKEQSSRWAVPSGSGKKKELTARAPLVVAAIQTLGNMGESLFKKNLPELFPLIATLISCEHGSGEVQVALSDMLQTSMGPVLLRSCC

Results are given in words; binding and its absence hold for the method and conditions named. In cells and extracts the contact can be indirect. Here binding means that the protein was enriched with, or labelled near, the bait; the list need not be complete. No binding means not detected with the bait.

Assay [1] has as its target MIN7-GFP fusion protein (Arabidopsis) (UniProt F4IXW2). Put plainly: affinity purification with mass spectrometry; GFP-Trap A beads, 3 h at 4°C; TGN vesicle extract of flg22-treated min7/35S::MIN7-GFP plants; control Col-0; washed with buffer containing 0.1% NP-40; two replicates.
Assay [2] has the same target. Put plainly: affinity purification with mass spectrometry; GFP-Trap A beads, 2 h at 4°C; detergent-solubilized (0.2% NP-40) total leaf extract of 1 μM flg22-treated min7/35S::MIN7-GFP plants; controls Col-0 and Col-0/35S::GFP; on-bead digestion, LC/MS/MS; three replicates.

Take “MIN13 (ARF-GEF, BIG2) (from UniProt Q9LZX8 1-1793)”: the binding result in assay [1] and in assay [2] was “binds” in each case.

As to ARFA1c (from UniProt P36397), the binding entry in assay [2] is given as “binds”.

“SEC7-like ARF-GEF (AT4G38200) (from UniProt F4JSZ5 1-1687)”: the binding entry in assay [1] is “binds”.

Regarding “SEC7-like ARF-GEF (AT1G01960) (from UniProt Q9LPC5 1-1750)”, the binding result in assay [1] is listed as “binds”.

B1: HLB1 (… TO LATRUNCULIN B1), tetratricopeptide repeat protein (protein, UniProt Q9FHY8 1-565)
chain: MADTVEEPQLQNGAAPAESETEQNPIPEPQLQTEPKLTGEIPEIEADLTPEEVQSEVTDAKPEEVQSEVKPEEVKTVVTDAKPEEAQSEVKPEEVQSVVTDTKPDLTDVDLSPGGSEEIPIRSTEVEQESTTSVLKKDDDGNKTFTMRELLSELKSEEGDGTPHSSASPFSRESASQPAENNPAMDLINRIQVNDEEGRSRQRVLAFAARKYASAIERNPDDHDALYNWALILQESADNVSPDSVSPSKDDLLEEACKKYDEATRLCPTLYDAYYNWAIAISDRAKIRGRTKEAEELWEQAADNYEKAVQLNWNSSQALNNWGLVLQELSQIVPAREKEKVVRTAISKFRAAIRLQFDFHRAIYNLGTVLYGLAEDTLRTGGSGNGKDMPPGELYSQSAIYIAAAHSLKPSYSVYSSALRLVRSMLPLPHLKVGYLTAPPVGNSLAPHSDWKRTEFELNHERLLQVLKPEPREMGRNLSGKAETMSTNVERKTVKVNITEIVSVTPCADLTLPPGAGLCIDTIHGPVFLVADSWESLDGWLDAIRLVYTIYARGKSDVLAGIITG
B1: the binding entry in assay [1] and in assay [2] was “binds” in each case.

B2: MIN2 (RAD23a) (protein, UniProt Q84L32 1-368)
chain: MKLTVKTLKGSHFEIRVLPTDTIMAVKKNIEDSQSKDNYPCGQQLLIHNGKVLKDETTLVENKVTEEGFLVVMLSKSKTASSAGPSSTQPTSTTTSTISSTTLAAPSTTQSIAVPASNSTPVQEQPTAQSDTYGQAASTLVSGSSIEQMVQQIMEMGGGSWDKETVTRALRAAYNNPERAVDYLYSGIPETVTIPATNLSGVGSGRELTAPPPSGGPNSSPLDLFPQEAVSDAAGGDLGTLEFLRGNDQFQQLRSMVNSNPQILQPMLQELGKQNPQLLRLIQENQAEFLQLLNEPYEGSDGDVDIFDQPDQEMPHSVNVTPEEQESIERLEAMGFDRAIVIEAFLSCDRNEELAANYLLEHSADFED
With B2, the binding entry in assay [1] and in assay [2] was “no binding” throughout.

B3: 14-3-3 CHI (protein, UniProt P42643 1-267)
chain: MATPGASSARDEFVYMAKLAEQAERYEEMVEFMEKVAKAVDKDELTVEERNLLSVAYKNVIGARRASWRIISSIEQKEESRGNDDHVSLIRDYRSKIETELSDICDGILKLLDTILVPAAASGDSKVFYLKMKGDYHRYLAEFKSGQERKDAAEHTLTAYKAAQDIANSELAPTHPIRLGLALNFSVFYYEILNSPDRACNLAKQAFDEAIAELDTLGEESYKDSTLIMQLLRDNLTLWTSDMQDDVADDIKEAAPAAAKPADEQQS
In the case of B3, in assay [2], the binding entry was “binds”.

B4: MIN10 (14-3-3 KAPPA) (protein, UniProt P48348 1-248)
chain: MATTLSRDQYVYMAKLAEQAERYEEMVQFMEQLVSGATPAGELTVEERNLLSVAYKNVIGSLRAAWRIVSSIEQKEESRKNEEHVSLVKDYRSKVETELSSICSGILRLLDSHLIPSATASESKVFYLKMKGDYHRYLAEFKSGDERKTAAEDTMIAYKAAQDVAVADLAPTHPIRLGLALNFSVFYYEILNSSEKACSMAKQAFEEAIAELDTLGEESYKDSTLIMQLLRDNLTLWTSDMQEQMDEA
As for B4, the binding entry in assay [1] is “binds”.
